PubChem BioAssay AID1159584 – Peter MacCallum Cancer Centre | 2016
Purpose: 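Genes that CDH1-null MCF10A cells selectively depend on to survive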 (primary screen). Cell system: human MCF10A breast epithelial cells, parental and CDH1-null. Reagent: siRNA against human genes. Detection: 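Cell viability by CellTiter-Glo ATP luminescence, each line scaled to the mean of mock wells across plates, then CDH1-null over parental ratio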. Direction: CDH1-null / parental viability ratio: higher = CDH1-null cells survive relatively better than parental; CDH1-null viability vs mock: higher = more viable CDH1-null cells; parental viability vs mock: higher = more viable parental cells.
This is a random part of about 18,000 reagents. The record does not give: the amount of reagent, the time to read-out.

The opening 6 records, ahead of the listing:
no.	gene	CDH1-null / parental viability ratio	CDH1-null viability vs mock (fraction of mock)	parental viability vs mock (fraction of mock)
1	VNN3P	0.89	0.8	0.9
2	AEBP2	0.98	0.86	0.88
3	UGP2	0.93	0.82	0.88
4	ADGRB2	0.57	0.58	1.01
5	IL32	0.91	0.75	0.82
6	CLEC3B	0.81	0.5	0.62

Main list, from the first entry:
no.	gene	CDH1-null / parental viability ratio	CDH1-null viability vs mock (fraction of mock)	parental viability vs mock (fraction of mock)
1	VNN3P	0.89	0.8	0.9
2	AEBP2	0.98	0.86	0.88
3	UGP2	0.93	0.82	0.88
4	ADGRB2	0.57	0.58	1.01
5	IL32	0.91	0.75	0.82
6	CLEC3B	0.81	0.5	0.62
7	GOLGA7B	0.92	0.55	0.6
8	CCL13	1.14	0.96	0.84
9	GAD2	1.05	1.13	1.08
10	YBX1	1.26	0.88	0.7
11	GALNT8	1.07	0.88	0.82
12	LMX1A	0.98	0.86	0.88
13	MYH11	1.2	0.79	0.66
14	SCGN	1.53	0.81	0.53
15	GIP	1.45	0.96	0.66
16	FGF22	1.27	0.38	0.3
17	MYT1	0.7	0.64	0.92
18	CNDP1	1.14	0.66	0.58
19	CFAP418	1.14	1.14	1
20	PSG4	0.96	0.65	0.68
21	FBXO21	0.97	0.76	0.78
22	WARS2	1.12	1.12	1
23	KRT3	1.03	0.8	0.78
24	NTPCR	1.04	0.78	0.75
25	TTC8	0.97	0.93	0.96
26	HEATR9	1.07	0.92	0.86
27	RECK	1.23	0.95	0.77
28	MBTD1	1.12	1.15	1.03
29	HARS1	1.09	1.08	0.99
30	TTLL7	0.97	1.05	1.08
31	MGST1	0.92	0.88	0.96
32	LINC00482	0.96	0.79	0.82
33	ARID3A	0.98	0.82	0.84
34	OR56A4	1.11	0.93	0.84
35	CCNJL	1.06	0.7	0.66
36	PLCD3	0.94	0.5	0.53
37	POLR2B	1.17	0.42	0.36
38	POU2AF1	1.05	0.92	0.88
39	CTF1	0.92	0.77	0.84
40	RPL3	1.29	0.36	0.28
41	OR12D2	1.01	0.81	0.8
42	PCYT1B	0.95	0.87	0.92
43	CFAP61	1.01	0.84	0.83
44	CENPA	1.03	0.66	0.64
45	ZNF138	0.95	0.52	0.55
46	CSAD	0.83	0.75	0.9
47	CRYZL1	0.92	0.9	0.98
48	ZNF214	1.15	0.94	0.82
49	NEXMIF	1.02	0.51	0.5
50	FBXL19	1.06	0.91	0.86
51	DCAF6	1.11	0.81	0.73
52	DAGLA	0.91	0.84	0.92
53	CDCA7L	1.19	0.95	0.8
54	PKMYT1	0.8	0.76	0.95
55	DNAJB6	1.17	0.97	0.83
56	SNW1	1.06	0.51	0.48
57	MTX1	0.87	0.72	0.83
58	DMTN	1.21	1.04	0.86
59	BCOR	1.04	0.85	0.82
60	PFDN2	0.94	0.62	0.66
61	C12orf42	0.79	0.62	0.78
62	VCX3A	1.08	0.93	0.86
63	NR0B2	0.98	1.04	1.06
64	SCAND1	1.12	0.94	0.84
65	GFOD2	0.78	0.52	0.67
66	PLAC1	0.77	0.64	0.83
67	KIDINS220	1.04	1.12	1.08
68	OR8U8	1.07	0.86	0.8
